Source: article PMC7342019

Target: GFP-SteD (Salmonella Typhimurium)
Assay: co-IP; HEK293ET cells co-transfected, lysed 24 h later in 150 mM NaCl, 50 mM Tris pH 7.4, 5 mM EDTA, 0.5% Triton X100, 5% glycerol; GFP-tagged protein precipitated with GFP-trap beads 2 h at 4°C; immunoblot with anti-GFP and anti-FLAG

B1: FLAG-TMEM127 (protein, UniProt O75204 1-238)
chain: MYAPGGAGLPGGRRRRSPGGSALPKQPERSLASALPGALSITALCTALAEPAWLHIHGGTCSRQELGVSDVLGYVHPDLLKDFCMNPQTVLLLRVIAAFCFLGILCSLSAFLLDVFGPKHPALKITRRYAFAHILTVLQCATVIGFSYWASELILAQQQQHKKYHGSQVYVTFAVSFYLVAGAGGASILATAANLLRHYPTEEEEQALELLSEMEENEPYPAEYEVINQFQPPPAYTP
binding: binds

Results are given in words; binding and its absence hold for the method and conditions named. In cells and extracts the contact can be indirect. Binding calls can cover weak binding; strength is not graded here. Sequences can lack the tags named with a protein.
